In the test the target is CitCHIL1, split-luciferase fusion (LCI) (Citrus reticulata cv. Suavissima (Ougan)). The test is described as follows: split reporter; firefly luciferase complementation imaging (LCI); nLUC and cLUC constructs co-infiltrated into N. benthamiana leaves; LUC activity 2 days after infiltration, 0.2 mM luciferin, NightSHADE LB 985.

No constants are given. Whether binding was seen depends on the method and setting. In cells and extracts the contact can be indirect. Binding calls can cover weak binding; strength is not graded here. Where a sequence is shown, tags or fusion partners need not be part of it.

B1: AtCHS (Arabidopsis chalcone synthase, At5g13930), split-luciferase fusion (LCI) (enzyme, UniProt P13114 1-395)
chain: MVMAGASSLDEIRQAQRADGPAGILAIGTANPENHVLQAEYPDYYFRITNSEHMTDLKEKFKRMCDKSTIRKRHMHLTEEFLKENPHMCAYMAPSLDTRQDIVVVEVPKLGKEAAVKAIKEWGQPKSKITHVVFCTTSGVDMPGADYQLTKLLGLRPSVKRLMMYQQGCFAGGTVLRIAKDLAENNRGARVLVVCSEITAVTFRGPSDTHLDSLVGQALFSDGAAALIVGSDPDTSVGEKPIFEMVSAAQTILPDSDGAIDGHLREVGLTFHLLKDVPGLISKNIVKSLDEAFKPLGISDWNSLFWIAHPGGPAILDQVEIKLGLKEEKMRATRHVLSEYGNMSSACVLFILDEMRRKSAKDGVATTGEGLEWGVLFGFGPGLTVETVVLHSVPL
In the case of B1, the binding result is reported as “binds”.

The values above are taken from article PMC8051604.
